The values that follow come from paper PMC4526233.

Chains of the proteins cited; added tags and fusions are not shown.
UniProt Q92598: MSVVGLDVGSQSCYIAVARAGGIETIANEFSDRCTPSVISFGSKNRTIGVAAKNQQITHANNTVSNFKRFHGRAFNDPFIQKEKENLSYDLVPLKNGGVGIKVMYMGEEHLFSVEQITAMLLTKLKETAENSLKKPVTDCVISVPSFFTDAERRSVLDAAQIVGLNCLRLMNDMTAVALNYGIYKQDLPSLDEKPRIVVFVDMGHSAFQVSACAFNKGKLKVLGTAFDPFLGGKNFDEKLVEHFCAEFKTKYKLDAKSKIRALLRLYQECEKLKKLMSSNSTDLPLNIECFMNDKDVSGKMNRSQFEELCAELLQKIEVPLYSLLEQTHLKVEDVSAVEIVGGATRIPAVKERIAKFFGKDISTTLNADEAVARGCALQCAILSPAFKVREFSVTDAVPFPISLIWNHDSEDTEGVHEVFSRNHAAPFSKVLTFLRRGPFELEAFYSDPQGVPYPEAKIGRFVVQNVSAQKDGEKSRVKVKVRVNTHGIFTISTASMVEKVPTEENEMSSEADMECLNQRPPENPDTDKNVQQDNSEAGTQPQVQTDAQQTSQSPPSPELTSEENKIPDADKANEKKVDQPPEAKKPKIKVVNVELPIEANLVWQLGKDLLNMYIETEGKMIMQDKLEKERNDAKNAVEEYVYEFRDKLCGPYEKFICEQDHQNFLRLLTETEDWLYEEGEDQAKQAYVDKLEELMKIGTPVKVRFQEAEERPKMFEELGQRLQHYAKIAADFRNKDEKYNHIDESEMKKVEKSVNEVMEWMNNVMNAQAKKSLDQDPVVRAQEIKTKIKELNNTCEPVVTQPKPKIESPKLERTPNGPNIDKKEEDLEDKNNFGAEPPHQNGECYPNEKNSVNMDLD
UniProt P11142: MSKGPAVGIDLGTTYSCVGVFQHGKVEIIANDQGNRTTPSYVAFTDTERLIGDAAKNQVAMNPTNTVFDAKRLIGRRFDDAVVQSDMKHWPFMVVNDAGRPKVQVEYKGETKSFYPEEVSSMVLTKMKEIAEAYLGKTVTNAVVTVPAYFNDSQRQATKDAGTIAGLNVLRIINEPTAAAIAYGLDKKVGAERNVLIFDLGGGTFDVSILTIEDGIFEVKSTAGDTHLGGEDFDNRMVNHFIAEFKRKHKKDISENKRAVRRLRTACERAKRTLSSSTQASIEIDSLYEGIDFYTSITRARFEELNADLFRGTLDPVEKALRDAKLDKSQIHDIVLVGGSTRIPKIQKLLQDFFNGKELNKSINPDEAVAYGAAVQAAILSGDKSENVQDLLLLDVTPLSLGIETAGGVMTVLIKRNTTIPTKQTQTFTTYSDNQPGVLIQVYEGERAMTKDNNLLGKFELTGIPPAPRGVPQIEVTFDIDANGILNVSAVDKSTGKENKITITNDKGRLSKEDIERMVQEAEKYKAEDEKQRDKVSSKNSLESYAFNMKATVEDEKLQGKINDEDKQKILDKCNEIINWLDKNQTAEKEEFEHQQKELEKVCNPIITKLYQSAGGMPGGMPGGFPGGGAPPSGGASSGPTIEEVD

This assay concerns the target T1, 3x-FLAG tagged B14 (B14-3xF) (UniProt Q8TBM8).
T1 sequence: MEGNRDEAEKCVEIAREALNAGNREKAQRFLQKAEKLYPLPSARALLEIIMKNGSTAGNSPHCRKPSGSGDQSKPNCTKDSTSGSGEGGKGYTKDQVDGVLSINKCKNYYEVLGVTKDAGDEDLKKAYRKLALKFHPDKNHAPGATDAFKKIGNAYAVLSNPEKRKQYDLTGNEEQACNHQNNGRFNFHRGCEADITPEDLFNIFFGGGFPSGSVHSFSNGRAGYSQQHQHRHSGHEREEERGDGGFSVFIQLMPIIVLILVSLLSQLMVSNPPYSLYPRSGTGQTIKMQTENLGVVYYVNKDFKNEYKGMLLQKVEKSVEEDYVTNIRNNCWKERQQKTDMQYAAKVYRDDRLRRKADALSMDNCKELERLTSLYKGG
The assay can be described thus: affinity purification with mass spectrometry.

No constants are given. Whether binding was seen depends on the method and setting. Binding seen in cells or lysates may run through a third protein. These calls come from enrichment with a bait or labelling near it, and not all partners need be listed. Tags and fused reporters may be left off the sequences shown.

Take “Hsp105 (endogenous, Flp-In 293 T-Rex cells) (from UniProt Q92598 1-858)”: the binding entry is “binds”.
“Hsc70 (endogenous, Flp-In 293 T-Rex cells) (from UniProt P11142 1-646)”: the binding result is “binds”.
